Experiment: general procedure: Fmoc solid-phase peptide synthesis; 4-Fmoc-hydrazinobenzoyl AM resin (Novabiochem)
Conditions: whole synthesis

Row | Substance | crude HPLC purity [%]
1 | H-LCYKAA-SEt | 70
2 | H-LYKAA-SEt | 90

Source: US7414106 (dated 2008)
